Source: doi:10.1101/2024.12.16.628697
These are yes or no findings as the source states them, for the method shown. Some entries that bind do so weakly or less than the wild type.

Sequences of proteins named here, by UniProt entry; tags and fusion partners are left off. Residues count along the entry.
UniProt Q8TAF3, residues 9-677: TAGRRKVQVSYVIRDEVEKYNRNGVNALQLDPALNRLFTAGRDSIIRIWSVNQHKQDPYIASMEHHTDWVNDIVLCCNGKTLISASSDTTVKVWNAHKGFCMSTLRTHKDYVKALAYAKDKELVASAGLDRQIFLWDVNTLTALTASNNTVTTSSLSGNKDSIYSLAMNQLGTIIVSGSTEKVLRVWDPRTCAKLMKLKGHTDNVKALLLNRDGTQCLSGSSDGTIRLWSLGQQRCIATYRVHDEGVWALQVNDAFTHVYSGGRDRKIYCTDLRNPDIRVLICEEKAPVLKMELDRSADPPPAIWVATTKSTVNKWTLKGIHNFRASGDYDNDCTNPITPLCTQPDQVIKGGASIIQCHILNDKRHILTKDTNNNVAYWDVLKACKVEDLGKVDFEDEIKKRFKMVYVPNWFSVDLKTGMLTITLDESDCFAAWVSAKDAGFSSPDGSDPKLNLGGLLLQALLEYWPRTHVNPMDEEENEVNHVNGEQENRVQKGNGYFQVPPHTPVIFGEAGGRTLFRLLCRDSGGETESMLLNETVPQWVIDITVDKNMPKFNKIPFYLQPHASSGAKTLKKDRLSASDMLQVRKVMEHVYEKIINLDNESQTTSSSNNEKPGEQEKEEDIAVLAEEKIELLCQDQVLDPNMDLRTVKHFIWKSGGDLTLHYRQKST

Target: UAF1 (res. 9-677) (UniProt Q8TAF3)
Test: co-purification

B1: USP1 (res. 21-785, G670A + G671A) (enzyme, UniProt O94782 21-785)
chain: NRLSLKFFQKKETKRALDFTDSQENEEKASEYRASEIDQVVPAAQSSPINCEKRENLLPFVGLNNLGNTCYLNSILQVLYFCPGFKSGVKHLFNIISRKKEALKDEANQKDKGNCKEDSLASYELICSLQSLIISVEQLQASFLLNPEKYTDELATQPRRLLNTLRELNPMYEGYLQHDAQEVLQCILGNIQETCQLLKKEEVKNVAELPTKVEEIPHPKEEMNGINSIEMDSMRHSEDFKEKLPKGNGKRKSDTEFGNMKKKVKLSKEHQSLEENQRQTRSKRKATSDTLESPPKIIPKYISENESPRPSQKKSRVKINWLKSATKQPSILSKFCSLGKITTNQGVKGQSKENECDPEEDLGKCESDNTTNGCGLESPGNTVTPVNVNEVKPINKGEEQIGFELVEKLFQGQLVLRTRCLECESLTERREDFQDISVPVQEDELSKVEESSEISPEPKTEMKTLRWAISQFASVERIVGEDKYFCENCHHYTEAERSLLFDKMPEVITIHLKCFAASGLEFDCYGGGLSKINTPLLTPLKLSLEEWSTKPTNDSYGLFAVVMHSGITISSGHYTASVKVTDLNSLELDKGNFVVDQMCEIGKPEPLNEEEARGVVENYNDEEVSIRVGGNTQPSKVLNKKNVEAIGLLAAQKSKADYELYNKASNPDKVASTAFAENRNSETSDTTGTHESDRNKESSDQTGINISGFENKISYVVQSLKEYEGKWLLFDDSEVKVTEEKDFLNSLSPSTSPTSTPYLLFYKKL
  binding: binds
